Here are results for two substances from US20140219992A1.

Amino acid sequences for entries named in this document (tags omitted). A change or cut given only in a name is not applied to a line headed by its entry.
UniProt P03956: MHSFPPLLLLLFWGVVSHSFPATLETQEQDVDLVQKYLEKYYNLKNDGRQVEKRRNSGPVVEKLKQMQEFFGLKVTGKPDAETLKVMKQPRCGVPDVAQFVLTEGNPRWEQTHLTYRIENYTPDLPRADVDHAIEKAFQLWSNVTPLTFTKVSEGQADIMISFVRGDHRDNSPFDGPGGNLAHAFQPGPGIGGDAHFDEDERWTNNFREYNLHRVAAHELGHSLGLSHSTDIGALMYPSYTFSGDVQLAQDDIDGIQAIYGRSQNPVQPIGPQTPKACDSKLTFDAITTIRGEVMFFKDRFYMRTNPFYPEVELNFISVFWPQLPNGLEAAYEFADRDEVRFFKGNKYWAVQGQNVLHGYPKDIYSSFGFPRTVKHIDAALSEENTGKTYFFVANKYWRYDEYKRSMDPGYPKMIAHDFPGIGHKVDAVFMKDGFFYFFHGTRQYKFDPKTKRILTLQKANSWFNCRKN

This test has as its target T1, a-2 macroglobulin of Zucker rat (rat) (UniProt P06238).
T1 sequence (looked up): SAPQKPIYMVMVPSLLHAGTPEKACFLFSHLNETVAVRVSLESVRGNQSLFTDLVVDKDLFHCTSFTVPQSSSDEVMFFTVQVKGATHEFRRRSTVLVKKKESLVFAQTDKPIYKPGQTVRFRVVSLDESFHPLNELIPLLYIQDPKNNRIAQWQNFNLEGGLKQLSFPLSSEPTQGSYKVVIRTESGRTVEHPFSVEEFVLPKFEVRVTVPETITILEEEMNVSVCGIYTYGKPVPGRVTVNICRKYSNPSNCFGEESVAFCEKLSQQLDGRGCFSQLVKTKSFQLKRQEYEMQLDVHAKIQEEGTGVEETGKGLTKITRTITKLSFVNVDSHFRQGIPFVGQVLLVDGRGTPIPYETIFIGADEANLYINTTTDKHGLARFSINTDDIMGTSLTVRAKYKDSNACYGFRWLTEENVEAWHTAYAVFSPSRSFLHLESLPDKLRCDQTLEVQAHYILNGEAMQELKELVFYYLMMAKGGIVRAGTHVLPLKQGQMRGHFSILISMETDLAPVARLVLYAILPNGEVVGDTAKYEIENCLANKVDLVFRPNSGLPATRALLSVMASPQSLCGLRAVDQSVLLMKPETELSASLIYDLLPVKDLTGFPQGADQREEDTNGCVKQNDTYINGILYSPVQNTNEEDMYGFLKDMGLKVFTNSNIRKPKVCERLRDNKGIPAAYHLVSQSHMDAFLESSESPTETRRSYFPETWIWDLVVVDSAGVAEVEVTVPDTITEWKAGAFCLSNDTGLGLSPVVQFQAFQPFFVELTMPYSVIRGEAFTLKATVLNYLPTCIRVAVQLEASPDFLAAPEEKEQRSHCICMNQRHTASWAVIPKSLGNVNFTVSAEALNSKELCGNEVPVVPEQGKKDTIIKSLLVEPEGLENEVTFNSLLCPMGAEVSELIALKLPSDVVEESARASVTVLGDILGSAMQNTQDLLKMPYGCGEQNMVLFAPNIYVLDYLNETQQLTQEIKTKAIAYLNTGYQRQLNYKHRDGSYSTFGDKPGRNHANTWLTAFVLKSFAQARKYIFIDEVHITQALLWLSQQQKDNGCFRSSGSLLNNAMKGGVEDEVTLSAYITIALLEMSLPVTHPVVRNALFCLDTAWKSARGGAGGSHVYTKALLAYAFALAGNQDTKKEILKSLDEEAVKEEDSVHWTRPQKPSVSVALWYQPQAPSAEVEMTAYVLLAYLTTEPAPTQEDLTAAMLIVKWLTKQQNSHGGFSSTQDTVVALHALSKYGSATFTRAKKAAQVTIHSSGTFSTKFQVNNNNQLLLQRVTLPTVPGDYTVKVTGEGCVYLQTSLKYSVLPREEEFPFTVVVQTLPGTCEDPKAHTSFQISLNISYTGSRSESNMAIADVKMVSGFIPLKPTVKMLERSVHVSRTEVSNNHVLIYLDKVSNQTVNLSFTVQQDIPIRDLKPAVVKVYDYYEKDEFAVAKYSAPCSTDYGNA
Description: immunoprecipitation of Zucker rat skin perfusate with anti-rat a-2 macroglobulin antibody, Western blot with anti-human MMP-1 antibody. For orientation: In western blotting, separated proteins are transferred to a membrane and probed.

No constants are given. Whether binding was seen depends on the method and setting. Some entries that bind do so weakly or less than the wild type.

In the case of “MMP-1 mutant GVSK (G159V/S208K), purified and trypsin-activated (from UniProt P03956 100-469) (enzyme)”, the binding result is listed as “binds”. Turning to “wild-type human matrix metalloprotease 1 (hMMP-1), purified and trypsin-activated (from UniProt P03956 100-469) (enzyme)”, the binding result is on record as “binds”.
